{
  "sequences": {"note": "The chains behind the UniProt entries cited, without tags or fusion partners. Where a name states a change or a piece, a line headed by the entry shows the natural chain unless it says otherwise.", "UniProt P51679": "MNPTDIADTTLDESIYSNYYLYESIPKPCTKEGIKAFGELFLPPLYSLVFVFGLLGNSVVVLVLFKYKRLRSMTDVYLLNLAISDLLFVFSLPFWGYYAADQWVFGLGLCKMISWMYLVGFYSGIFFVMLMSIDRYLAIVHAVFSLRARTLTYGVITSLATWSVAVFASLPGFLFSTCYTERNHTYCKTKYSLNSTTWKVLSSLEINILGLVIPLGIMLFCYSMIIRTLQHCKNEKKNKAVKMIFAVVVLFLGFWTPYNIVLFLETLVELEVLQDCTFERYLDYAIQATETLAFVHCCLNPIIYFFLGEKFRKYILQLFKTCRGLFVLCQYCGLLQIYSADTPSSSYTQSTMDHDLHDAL", "UniProt P25025, whole entry": "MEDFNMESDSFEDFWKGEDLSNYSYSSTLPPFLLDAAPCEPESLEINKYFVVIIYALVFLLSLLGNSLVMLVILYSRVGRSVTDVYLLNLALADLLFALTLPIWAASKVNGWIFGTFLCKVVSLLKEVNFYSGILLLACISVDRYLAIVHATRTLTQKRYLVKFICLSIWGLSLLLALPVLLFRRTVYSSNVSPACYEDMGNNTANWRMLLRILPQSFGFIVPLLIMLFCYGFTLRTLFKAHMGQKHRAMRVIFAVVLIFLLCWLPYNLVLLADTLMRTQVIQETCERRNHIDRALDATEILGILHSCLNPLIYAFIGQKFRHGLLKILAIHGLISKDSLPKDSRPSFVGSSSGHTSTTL"},
  "source": "patent US9090596B2",
  "about": "“Disubstituted 3,4-diamino-3-cyclobutene-1,2-dione compounds for use in the treatment of chemokine-mediated pathologies” (GALDERMA RESEARCH & DEVELOPMENT, priority 2011, dated 2015)",
  "key": {"CCR4": {"biological_target": "CCR4 (Homo sapiens (Human), UniProt P51679)", "test": "Receptor profiling: calcium flux (FLIPR TETRA) on Chem-1 cells expressing chemokine receptor", "assay_type": "cell-based", "parameters": "key: IA: Inactive", "conditions": "antagonist activity, reference agonist at AC80", "protocol": "Measurement of Calcium Flux on Cells:\nThe experiments were carried out on the FLIPR TETRA® platform from Molecular Devices. After the basal level had been read, the compounds were added to the cells expressing the chemokine receptor of interest and the agonist activity was read at 10 seconds.\nEach cell line expressing a chemokine receptor was established on the basis of the Chem-1 cell stably expressing the recombinant form of the chemokine receptor and also an associated G protein, with the aim of coupling the receptor to the calcium signalling pathway. 21 receptors belonging to the chemokine receptor family (CCRs and CXCRs) were analyzed. All the CXCR2 antagonists were tested in a dose-dependent manner and the concentration corresponding to 50% inhibition of the response was determined (IC50)."}, "CXCR2": {"biological_target": "CXCR2 (Homo sapiens (Human), UniProt P25025)", "test": "Half-dissociation time, washout β-arrestin recruitment model in PathHunter HEK293-CXCR2 cells", "assay_type": "cell-based", "conditions": "CXCR2, saturating concentration of antagonist, 4 nM CXCL8"}},
  "note": "For at least one compound, name, drawing or mass did not settle the structure.",
  "data": [
    {"smiles": "Cc1ccc([C@H](Nc2c(Nc3cccc(C(=O)N(C)C)c3O)c(=O)c2=O)C2(C)COC2)o1", "note": "[Example 50, 2-hydroxy-N,N-dimethyl-3-(2-{[((R)-5-methylfuran-2-yl)-(3-methyloxetan-3-yl)methyl]amino}-3,4-dioxocyclobut-1-enylamino)benzamide]", "values": [
      {"measurement": "IC50 CCR4", "setting": "CCR4", "value": "IA"},
      {"measurement": "Half-dissociation time", "setting": "CXCR2", "value": 11, "unit": "h"}
    ]}
  ]
}
